In patent US20190177415A1:
No constants are given. Whether binding was seen depends on the method and setting.

By UniProt entry, the sequences of proteins in these tests, tags left out. Where a name states a change or a piece, a line headed by the entry shows the natural chain unless it says otherwise.
UniProt Q9H7M9: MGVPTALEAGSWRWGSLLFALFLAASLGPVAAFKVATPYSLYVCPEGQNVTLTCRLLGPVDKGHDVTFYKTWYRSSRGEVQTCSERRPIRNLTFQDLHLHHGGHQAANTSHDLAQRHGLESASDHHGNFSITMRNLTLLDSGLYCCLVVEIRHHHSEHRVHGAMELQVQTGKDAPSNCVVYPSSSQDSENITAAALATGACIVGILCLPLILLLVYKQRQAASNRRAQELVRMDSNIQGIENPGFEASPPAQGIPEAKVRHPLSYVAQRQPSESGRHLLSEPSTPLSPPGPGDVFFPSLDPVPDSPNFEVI

Columns and labels:
Test in all cases: condition: MFI <20-fold over isotype control at 2 ug/ml; flow cytometry, transfected 293t cells
[1] = biological target: T1, chimeric C10orf54: mouse with human loop (construct CC10) (human/mouse chimera)
T1 sequence: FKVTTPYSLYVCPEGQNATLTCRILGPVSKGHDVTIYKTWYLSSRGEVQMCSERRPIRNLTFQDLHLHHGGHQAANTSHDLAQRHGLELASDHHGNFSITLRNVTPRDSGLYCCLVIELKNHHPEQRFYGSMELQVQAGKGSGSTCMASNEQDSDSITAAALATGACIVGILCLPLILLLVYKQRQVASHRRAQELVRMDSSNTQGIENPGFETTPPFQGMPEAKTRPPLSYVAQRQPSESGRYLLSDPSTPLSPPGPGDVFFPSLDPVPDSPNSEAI

[2] = biological target: chimeric C10orf54: human with mouse loop (construct CC9) (human/mouse chimera) (UniProt Q9H7M9)
[3] = biological target: chimeric C10orf54: first half of IgV human and remainder (including loop) mouse (construct CC7) (human/mouse chimera)
[4] = biological target: T2, full length mouse C10orf54 (construct CC2) (mouse) (UniProt Q9D659)
T2 sequence: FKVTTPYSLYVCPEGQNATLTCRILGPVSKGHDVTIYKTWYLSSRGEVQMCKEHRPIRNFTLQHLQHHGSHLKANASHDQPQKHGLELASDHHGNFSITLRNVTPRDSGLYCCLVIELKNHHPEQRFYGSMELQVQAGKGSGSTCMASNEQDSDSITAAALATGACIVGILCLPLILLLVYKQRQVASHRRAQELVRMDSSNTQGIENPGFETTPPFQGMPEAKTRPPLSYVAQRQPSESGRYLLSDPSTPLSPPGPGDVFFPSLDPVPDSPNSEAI

[5] = biological target: T3, chimeric C10orf54: mouse IgV with human STALK (construct CC6) (human/mouse chimera)
T3 sequence: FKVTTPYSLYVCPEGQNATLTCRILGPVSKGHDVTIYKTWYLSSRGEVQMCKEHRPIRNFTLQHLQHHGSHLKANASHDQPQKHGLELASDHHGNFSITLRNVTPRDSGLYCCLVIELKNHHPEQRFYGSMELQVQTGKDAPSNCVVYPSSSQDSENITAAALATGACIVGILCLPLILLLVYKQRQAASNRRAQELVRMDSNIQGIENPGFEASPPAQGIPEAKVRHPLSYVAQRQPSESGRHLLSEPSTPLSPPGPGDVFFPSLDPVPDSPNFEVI

[6] = biological target: T4, chimeric C10orf54: first half of IgV mouse and remainder (including loop) human (construct CC8) (human/mouse chimera) (UniProt Q9H7M9)
T4 sequence: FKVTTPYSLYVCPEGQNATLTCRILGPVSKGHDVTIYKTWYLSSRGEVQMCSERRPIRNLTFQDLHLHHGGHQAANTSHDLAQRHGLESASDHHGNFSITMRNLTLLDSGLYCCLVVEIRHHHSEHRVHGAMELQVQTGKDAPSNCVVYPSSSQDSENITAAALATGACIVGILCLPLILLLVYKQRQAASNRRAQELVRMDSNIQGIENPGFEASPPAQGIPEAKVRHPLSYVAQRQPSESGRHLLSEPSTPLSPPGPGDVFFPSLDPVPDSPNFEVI

| binding [2] | binding [3] | binding [4] | binding [5] | binding [6] | Binder | binding [1] |
| --- | --- | --- | --- | --- | --- | --- |
| no binding | no binding | no binding | no binding |  | murine monoclonal antibody 39A (antibody, V domains shown) VH: QVQLQQSGAELMKPGASVKISCKATGYTFSSNWIEWVKQRPGHGLEWIGEILPGSGSTSYNEKFKGKATFTADTSSNTAYMQLSSLTSEDSAVYYCARWLLYYYAMDYWGQGTSVTVSS VL: DVLMTQTPLSLPVSLGDPASISCRSSQSIVHNNGNTYLEWYLQKPGQSPKLLIYKVSNRFSGVPDRFSGSGSGTDFTLKISRVEAEDLGVYYCFQGSHVPYTFGGGTKLEIK | no binding |
| no binding | no binding | no binding | no binding |  | murine monoclonal antibody 124A (antibody, V domains shown) VH: QVQLQQSGAELMKPGASVKISCKATGYTFSSNWIEWVKQRPGHGLEWMGEILPGSGSTSYNEKFKGKATFTADTSSNTAYMQLSSLTSEDSAVYYCARWLLYYYAMDFWGQGTSVTVSS VL: DVLMTQTPLSLPVSLGDQASISCRSSQSIVHNNGNTYLEWYLQKPGQSPKLLIYKVSNRFSGVPDRFSGSGSGTDFTLKISRVEAEDLGVYYCFQGSHVPYTFGGGTKLEIK | no binding |
| no binding | no binding | no binding | no binding | no binding | murine monoclonal antibody 175A (antibody, V domains shown) VH: QVQLQQSGAELMKPGASVKISCKATGYTFSTHWIEWVKQRPGHGLEWIGEILPGSGSTSYNEKFKGKATFTADTSSNTAYMQLSSLTSEDSAVYYCARWLLYYYAMDYWGQGTSVTVSS VL: DVLMTQTPLSLPVSLGDQASISCRSSQSIVHSNGNTYLEWYLQKPGQSPKLLIYKLSNRFSGVPDRFSGSGSGTDFTLKISRVEAEDLGVYYCFQGSHFPYTFGGGTKLEIK | no binding |
| no binding | no binding | no binding | no binding |  | murine monoclonal antibody 259A (antibody, V domains shown) VH: EVQLQQSGPELVKPGASVKMSCKASGYTFTSYFMHWVKQKPGQGLEWIGYIYPYNDGTKYNEKFKGKATLTSDKSSSTAYMDLSSLTSEDSAVYYCARFDYDTLRYWGQGTTLTVSS VL: DVVLTQTPLSLPVNIGDQASISCKSTKSLLNSDGFTYLDWYLQKPGQSPQLLIYLISNRFSGVPDRFSGSGSGTDFTLKISRVEAEDLGVYYCFQSNYFPWTFGGGTKLEIK | no binding |
